Laboratory results taken from the supplement of paper PMC10849652.
This is one part of the list.

Amino acid sequences for entries named in this document (tags omitted). A change or cut given only in a name is not applied to a line headed by its entry.
UniProt P84090, whole entry, looked up: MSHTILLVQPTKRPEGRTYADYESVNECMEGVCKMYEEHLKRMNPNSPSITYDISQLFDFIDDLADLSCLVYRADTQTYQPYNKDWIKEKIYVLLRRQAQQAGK
UniProt P32519: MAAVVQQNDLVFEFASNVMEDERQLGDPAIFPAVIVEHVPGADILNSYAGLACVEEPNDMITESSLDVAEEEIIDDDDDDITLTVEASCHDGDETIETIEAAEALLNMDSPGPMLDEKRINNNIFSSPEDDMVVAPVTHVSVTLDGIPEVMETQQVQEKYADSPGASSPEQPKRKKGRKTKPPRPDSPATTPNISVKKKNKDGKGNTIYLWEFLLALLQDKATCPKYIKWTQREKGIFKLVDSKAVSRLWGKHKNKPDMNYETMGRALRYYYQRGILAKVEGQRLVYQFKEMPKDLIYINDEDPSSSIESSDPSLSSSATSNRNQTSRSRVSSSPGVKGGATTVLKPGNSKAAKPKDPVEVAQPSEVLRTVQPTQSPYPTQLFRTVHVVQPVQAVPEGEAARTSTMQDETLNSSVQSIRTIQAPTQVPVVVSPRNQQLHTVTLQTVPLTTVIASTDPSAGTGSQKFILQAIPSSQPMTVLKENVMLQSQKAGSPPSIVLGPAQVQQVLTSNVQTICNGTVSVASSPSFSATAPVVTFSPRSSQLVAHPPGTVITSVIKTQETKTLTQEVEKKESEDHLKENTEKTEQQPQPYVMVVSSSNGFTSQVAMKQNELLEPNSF
UniProt Q9BV81: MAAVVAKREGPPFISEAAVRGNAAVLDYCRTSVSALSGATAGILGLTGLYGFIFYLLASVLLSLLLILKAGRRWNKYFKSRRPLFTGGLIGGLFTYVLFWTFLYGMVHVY
UniProt Q96RQ1: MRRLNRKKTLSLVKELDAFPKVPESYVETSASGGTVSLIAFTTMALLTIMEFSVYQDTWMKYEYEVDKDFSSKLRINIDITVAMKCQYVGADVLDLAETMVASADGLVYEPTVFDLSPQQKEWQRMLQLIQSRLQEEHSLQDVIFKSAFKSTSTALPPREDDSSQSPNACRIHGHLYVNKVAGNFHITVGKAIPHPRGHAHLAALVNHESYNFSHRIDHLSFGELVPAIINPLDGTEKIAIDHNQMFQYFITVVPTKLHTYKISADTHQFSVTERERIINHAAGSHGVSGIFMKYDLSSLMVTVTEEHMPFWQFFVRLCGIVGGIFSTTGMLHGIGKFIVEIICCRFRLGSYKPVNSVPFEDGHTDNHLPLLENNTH
UniProt Q8IV48: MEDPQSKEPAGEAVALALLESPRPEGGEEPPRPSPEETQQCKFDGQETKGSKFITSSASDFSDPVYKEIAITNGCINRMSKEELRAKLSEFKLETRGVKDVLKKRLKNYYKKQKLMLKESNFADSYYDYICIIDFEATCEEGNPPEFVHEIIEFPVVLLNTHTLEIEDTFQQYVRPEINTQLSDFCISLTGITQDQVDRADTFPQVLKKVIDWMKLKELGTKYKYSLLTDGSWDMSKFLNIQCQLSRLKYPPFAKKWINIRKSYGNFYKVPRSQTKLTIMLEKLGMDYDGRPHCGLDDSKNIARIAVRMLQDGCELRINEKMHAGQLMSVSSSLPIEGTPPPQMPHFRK
UniProt O43768: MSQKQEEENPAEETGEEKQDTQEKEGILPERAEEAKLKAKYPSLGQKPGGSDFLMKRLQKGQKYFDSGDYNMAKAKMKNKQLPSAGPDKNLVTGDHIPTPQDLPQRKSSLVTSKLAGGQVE
UniProt Q52LR7, whole entry, looked up: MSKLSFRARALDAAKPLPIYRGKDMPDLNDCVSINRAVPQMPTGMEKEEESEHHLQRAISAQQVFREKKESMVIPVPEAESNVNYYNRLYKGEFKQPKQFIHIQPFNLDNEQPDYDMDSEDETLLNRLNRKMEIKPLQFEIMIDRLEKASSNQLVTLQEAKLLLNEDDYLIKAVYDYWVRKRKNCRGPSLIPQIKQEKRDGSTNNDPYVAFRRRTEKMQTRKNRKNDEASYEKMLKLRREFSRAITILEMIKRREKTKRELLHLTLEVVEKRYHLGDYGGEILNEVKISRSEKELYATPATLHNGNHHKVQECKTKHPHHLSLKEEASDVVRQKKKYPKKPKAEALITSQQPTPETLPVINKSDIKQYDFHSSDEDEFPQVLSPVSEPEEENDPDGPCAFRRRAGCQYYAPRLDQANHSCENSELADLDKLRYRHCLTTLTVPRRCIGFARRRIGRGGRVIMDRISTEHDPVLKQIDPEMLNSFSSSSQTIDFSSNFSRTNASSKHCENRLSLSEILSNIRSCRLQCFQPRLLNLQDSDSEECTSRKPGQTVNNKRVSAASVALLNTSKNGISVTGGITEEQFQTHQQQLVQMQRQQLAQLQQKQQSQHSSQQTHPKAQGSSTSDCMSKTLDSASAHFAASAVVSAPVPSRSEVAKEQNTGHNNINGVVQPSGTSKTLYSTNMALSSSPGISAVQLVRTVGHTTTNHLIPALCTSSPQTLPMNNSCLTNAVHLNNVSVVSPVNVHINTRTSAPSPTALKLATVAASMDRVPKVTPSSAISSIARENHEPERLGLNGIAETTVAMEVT
UniProt Q9P0I2: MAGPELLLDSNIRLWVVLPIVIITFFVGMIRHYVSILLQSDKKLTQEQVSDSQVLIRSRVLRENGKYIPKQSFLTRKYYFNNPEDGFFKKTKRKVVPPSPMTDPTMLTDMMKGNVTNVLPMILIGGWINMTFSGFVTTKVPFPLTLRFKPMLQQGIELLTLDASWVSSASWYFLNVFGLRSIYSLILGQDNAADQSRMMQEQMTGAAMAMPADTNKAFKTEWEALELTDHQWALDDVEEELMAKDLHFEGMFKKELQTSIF
UniProt O75821, whole entry, looked up: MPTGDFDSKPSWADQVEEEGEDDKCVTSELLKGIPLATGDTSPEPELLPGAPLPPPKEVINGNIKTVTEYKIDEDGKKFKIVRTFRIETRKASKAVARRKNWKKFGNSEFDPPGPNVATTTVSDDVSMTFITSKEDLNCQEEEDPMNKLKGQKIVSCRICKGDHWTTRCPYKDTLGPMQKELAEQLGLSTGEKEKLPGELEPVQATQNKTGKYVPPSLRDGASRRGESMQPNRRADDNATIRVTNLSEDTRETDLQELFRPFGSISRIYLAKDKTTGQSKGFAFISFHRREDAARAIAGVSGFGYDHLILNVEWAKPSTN
UniProt O75822, whole entry, looked up: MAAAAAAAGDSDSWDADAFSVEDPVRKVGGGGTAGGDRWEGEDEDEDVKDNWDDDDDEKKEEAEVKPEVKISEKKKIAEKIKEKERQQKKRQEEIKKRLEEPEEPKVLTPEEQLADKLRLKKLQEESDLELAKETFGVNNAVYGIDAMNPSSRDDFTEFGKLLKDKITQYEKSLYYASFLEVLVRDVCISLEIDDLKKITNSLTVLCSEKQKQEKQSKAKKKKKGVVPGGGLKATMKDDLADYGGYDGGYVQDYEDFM
UniProt O95208: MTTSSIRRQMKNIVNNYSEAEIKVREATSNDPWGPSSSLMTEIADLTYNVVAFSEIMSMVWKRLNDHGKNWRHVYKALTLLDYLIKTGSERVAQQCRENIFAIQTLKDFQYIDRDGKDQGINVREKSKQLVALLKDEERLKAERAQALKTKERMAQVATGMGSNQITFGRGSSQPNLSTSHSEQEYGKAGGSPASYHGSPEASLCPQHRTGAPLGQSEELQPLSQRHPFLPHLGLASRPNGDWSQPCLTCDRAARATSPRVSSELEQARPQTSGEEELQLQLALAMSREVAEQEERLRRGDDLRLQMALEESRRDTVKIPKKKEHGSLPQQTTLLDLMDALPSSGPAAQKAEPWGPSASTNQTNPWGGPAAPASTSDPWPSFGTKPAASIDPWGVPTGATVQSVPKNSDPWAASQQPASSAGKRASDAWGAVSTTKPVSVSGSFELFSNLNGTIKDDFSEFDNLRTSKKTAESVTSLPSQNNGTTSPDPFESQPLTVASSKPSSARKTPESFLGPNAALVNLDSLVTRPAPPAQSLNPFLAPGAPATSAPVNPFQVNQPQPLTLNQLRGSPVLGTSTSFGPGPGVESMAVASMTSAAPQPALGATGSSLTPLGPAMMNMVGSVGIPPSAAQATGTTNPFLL
UniProt O15372, whole entry, looked up: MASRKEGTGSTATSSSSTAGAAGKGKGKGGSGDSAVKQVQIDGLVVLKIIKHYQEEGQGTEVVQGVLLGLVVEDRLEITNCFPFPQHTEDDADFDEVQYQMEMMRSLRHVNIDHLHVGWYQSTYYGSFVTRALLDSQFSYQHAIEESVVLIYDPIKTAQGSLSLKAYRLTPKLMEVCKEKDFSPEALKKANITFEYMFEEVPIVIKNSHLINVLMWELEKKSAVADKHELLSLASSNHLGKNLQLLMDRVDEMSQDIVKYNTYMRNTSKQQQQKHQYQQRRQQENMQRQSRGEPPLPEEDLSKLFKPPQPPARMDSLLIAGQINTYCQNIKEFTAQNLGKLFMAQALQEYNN
UniProt P55199: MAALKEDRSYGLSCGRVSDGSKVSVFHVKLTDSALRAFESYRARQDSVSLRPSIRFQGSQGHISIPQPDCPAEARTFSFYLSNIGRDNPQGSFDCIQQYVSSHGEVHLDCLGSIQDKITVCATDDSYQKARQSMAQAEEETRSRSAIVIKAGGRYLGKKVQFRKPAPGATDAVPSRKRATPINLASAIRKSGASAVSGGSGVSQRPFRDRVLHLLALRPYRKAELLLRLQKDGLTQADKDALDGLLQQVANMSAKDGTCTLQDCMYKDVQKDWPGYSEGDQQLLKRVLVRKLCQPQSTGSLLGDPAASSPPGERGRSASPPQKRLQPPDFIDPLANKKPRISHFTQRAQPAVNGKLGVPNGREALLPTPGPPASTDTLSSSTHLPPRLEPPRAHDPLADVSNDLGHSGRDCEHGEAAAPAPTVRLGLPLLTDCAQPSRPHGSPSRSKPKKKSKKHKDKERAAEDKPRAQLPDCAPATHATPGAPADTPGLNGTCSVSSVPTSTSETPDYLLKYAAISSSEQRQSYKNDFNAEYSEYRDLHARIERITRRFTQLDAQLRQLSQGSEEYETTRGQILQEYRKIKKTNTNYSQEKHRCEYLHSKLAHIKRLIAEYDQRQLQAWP
UniProt Q13542: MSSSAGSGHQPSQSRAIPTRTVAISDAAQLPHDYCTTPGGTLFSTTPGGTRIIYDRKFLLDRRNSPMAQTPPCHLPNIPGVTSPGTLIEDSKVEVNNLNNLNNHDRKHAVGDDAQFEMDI
UniProt P41091, whole entry, looked up: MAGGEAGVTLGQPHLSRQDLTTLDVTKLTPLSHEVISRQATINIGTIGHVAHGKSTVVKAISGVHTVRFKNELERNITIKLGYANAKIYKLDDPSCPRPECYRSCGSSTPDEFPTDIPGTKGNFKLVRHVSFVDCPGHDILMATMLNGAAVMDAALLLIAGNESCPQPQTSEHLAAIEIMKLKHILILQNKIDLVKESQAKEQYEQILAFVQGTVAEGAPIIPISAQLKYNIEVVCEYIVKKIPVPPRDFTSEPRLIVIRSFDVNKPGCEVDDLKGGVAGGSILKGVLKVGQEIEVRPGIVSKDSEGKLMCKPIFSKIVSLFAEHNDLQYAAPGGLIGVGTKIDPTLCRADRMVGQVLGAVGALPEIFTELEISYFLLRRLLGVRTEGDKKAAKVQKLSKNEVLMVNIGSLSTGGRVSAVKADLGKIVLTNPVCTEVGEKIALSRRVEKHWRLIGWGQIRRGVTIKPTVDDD
UniProt Q5J8M3, whole entry, looked up: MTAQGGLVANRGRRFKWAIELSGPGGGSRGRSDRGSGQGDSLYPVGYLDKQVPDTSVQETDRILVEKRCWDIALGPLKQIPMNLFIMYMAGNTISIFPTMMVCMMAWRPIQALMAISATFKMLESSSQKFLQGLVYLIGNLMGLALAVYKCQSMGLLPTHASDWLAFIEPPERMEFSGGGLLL
UniProt Q9Y6I3: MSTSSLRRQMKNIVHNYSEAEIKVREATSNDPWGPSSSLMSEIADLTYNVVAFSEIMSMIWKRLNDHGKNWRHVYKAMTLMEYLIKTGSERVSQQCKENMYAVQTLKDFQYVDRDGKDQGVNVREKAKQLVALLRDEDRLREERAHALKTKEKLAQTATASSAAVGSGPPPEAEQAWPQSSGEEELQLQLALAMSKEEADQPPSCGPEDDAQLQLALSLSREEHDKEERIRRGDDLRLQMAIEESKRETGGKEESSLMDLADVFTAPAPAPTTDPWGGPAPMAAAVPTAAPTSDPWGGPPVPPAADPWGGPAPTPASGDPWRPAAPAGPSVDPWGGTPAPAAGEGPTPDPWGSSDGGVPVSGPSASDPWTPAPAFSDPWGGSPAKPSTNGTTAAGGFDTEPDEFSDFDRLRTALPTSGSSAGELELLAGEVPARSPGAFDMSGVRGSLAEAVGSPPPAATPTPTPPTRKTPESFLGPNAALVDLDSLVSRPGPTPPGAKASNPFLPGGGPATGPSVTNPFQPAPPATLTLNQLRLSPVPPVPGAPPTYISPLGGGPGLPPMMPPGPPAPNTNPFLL

What follows are targets tested with C1=CC=C(C=C1)[C@H](COC2=CC3=C(C=C2)NC(=O)N3)NC(=O)C4=CC=CN(C4=O)CC5=CC(=C(C=C5)F)F (assay: log2 fold change, soluble protein after heating vs DMSO (PISA); higher = thermal stabilisation; K562 lysate, 10 uM; active = over 0.2 and 3.5 SD of the protein, either way, in both replicates (recomputed)).
Procedure, shortened: (§1)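 K562 pellets were dounce-homogenised in PBS pH 7.4 containing 1 mM MgCl2, and the crude extract, at 1 mg/mL protein, was exposed to 10 μM compound for 30 min. Aliquots were heated for 3 min across 48°C-58°C, pooled, brought to 0.5% NP-40 at 4°C and spun at 21,000xg for 90 min, with the supernatant taken as soluble protein. TMTpro 16plex LC-MS/MS with equalised channel sums quantified that protein. Values are log-two fold changes in thermal stability relative to solvent controls, taken from duplicates.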
EMC2 (UniProt Q15006) was tested, and the log2 fold change was inactive: 0.005. For ERH (UniProt P84090), the log2 fold change was inactive: 0.061. In the case of EIF2B4 (UniProt Q9UI10), the log2 fold change is reported as inactive: 0.028. ERAP1 isoform 2 (UniProt Q9NZ08) was tested, and the log2 fold change was inactive: 0.021. For ELF1 (UniProt P32519), the log2 fold change was inactive: 0.037. With EMC6 (UniProt Q9BV81) the log2 fold change was inactive: 0.008. For EIF4H isoform 2 (UniProt Q15056), the log2 fold change was inactive: 0.072. ERGIC2 (UniProt Q96RQ1) was tested, and the log2 fold change was inactive: -0.128. In the case of ELOB (UniProt Q15370), the log2 fold change is reported as inactive: -0.011. In the case of ERI1 (UniProt Q8IV48), the log2 fold change is reported as inactive: 0.071. ERAP2 (UniProt Q6P179) was tested, and the log2 fold change was inactive: -0.097. For EPB41L3 (UniProt Q9Y2J2), the log2 fold change was inactive: -0.01. With EIF3E (UniProt P60228) the log2 fold change was inactive: -0.01. In the case of EIF2B4 isoform 2 (UniProt Q9UI10), the log2 fold change is reported as inactive: -0.026. ENSA isoform 3 (UniProt O43768) was tested, and the log2 fold change was inactive: 0.037. ELP1 (UniProt O95163) was tested, and the log2 fold change was inactive: 0.014. For EIF2AK2 (UniProt P19525), the log2 fold change was inactive: 0.01. In the case of EPS8L1 (UniProt Q8TE68), the log2 fold change is reported as inactive: -0.003. With ERC1 (UniProt X6RLX0) the log2 fold change was inactive: 0.013. For ENO1, A0A2R8YEM5, the log2 fold change was inactive: 0.026. In the case of EPC2 (UniProt Q52LR7), the log2 fold change is reported as inactive: -0.152. In the case of EMC3 (UniProt Q9P0I2), the log2 fold change is reported as inactive: -0.021. EIF3G (UniProt O75821) was tested, and the log2 fold change was inactive: -0.024. For EIF3J (UniProt O75822), the log2 fold change was inactive: 0.005. For EPN2 (UniProt O95208), the log2 fold change was inactive: -0.012. With EIF3H (UniProt O15372) the log2 fold change was inactive: 0.057. ELL (UniProt P55199) was tested, and the log2 fold change was inactive: 0.031. With EIF4EBP2 (UniProt Q13542) the log2 fold change was inactive: -0.101. With EML4 (UniProt Q9HC35) the log2 fold change was inactive: 0.01. EIF2S3 (UniProt P41091) was tested, and the log2 fold change was inactive: -0.005. With EPB41L2 (UniProt O43491) the log2 fold change was inactive: -0.003. For EMC4 (UniProt Q5J8M3), the log2 fold change was inactive: -0.095. For EPN1 (UniProt Q9Y6I3), the log2 fold change was inactive: -0.002. In the case of EPB41, A0A2R8Y783, the log2 fold change is reported as inactive: -0.056.

Each target was assayed with CC1=C(SC2=C1C(=N[C@H](C3=NN=C(N32)C)CC(=O)N)C4=CC=C(C=C4)Cl)C in the same assay as above.
Procedure, shortened: as §1
With EMC2 (UniProt Q15006) the log2 fold change was inactive: -0.018. ERH (UniProt P84090) was tested, and the log2 fold change was inactive: 0.02. EIF2B4 (UniProt Q9UI10) was tested, and the log2 fold change was inactive: 0.079. In the case of ERAP1 isoform 2 (UniProt Q9NZ08), the log2 fold change is reported as inactive: 0.011. With ELF1 (UniProt P32519) the log2 fold change was inactive: 0.014. In the case of EMC6 (UniProt Q9BV81), the log2 fold change is reported as inactive: 0. In the case of EIF4H isoform 2 (UniProt Q15056), the log2 fold change is reported as inactive: -0.183. For ERGIC2 (UniProt Q96RQ1), the log2 fold change was inactive: -0.001. ELOB (UniProt Q15370) was tested, and the log2 fold change was inactive: -0.049. In the case of ERI1 (UniProt Q8IV48), the log2 fold change is reported as inactive: -0.061. ERAP2 (UniProt Q6P179) was tested, and the log2 fold change was inactive: 0.076. For EPB41L3 (UniProt Q9Y2J2), the log2 fold change was inactive: 0.047. In the case of EIF3E (UniProt P60228), the log2 fold change is reported as inactive: 0.028. EIF2B4 isoform 2 (UniProt Q9UI10) was tested, and the log2 fold change was inactive: 0.04. ENSA isoform 3 (UniProt O43768) was tested, and the log2 fold change was inactive: -0.027. For ELP1 (UniProt O95163), the log2 fold change was inactive: 0.005. With EIF2AK2 (UniProt P19525) the log2 fold change was inactive: -0.002. For EPS8L1 (UniProt Q8TE68), the log2 fold change was inactive: 0.073. ERC1 (UniProt X6RLX0) was tested, and the log2 fold change was inactive: -0.029. With ENO1, A0A2R8YEM5 the log2 fold change was inactive: -0.096. EPC2 (UniProt Q52LR7) was tested, and the log2 fold change was inactive: 0.087. With EMC3 (UniProt Q9P0I2) the log2 fold change was inactive: 0.041. EIF3G (UniProt O75821) was tested, and the log2 fold change was inactive: 0.013. EIF3J (UniProt O75822) was tested, and the log2 fold change was inactive: 0.027. With EPN2 (UniProt O95208) the log2 fold change was inactive: -0.017. For EIF3H (UniProt O15372), the log2 fold change was inactive: -0.01. ELL (UniProt P55199) was tested, and the log2 fold change was inactive: -0.028. EIF4EBP2 (UniProt Q13542) was tested, and the log2 fold change was inactive: -0.027. For EML4 (UniProt Q9HC35), the log2 fold change was inactive: 0.006. EIF2S3 (UniProt P41091) was tested, and the log2 fold change was inactive: 0.034. In the case of EPB41L2 (UniProt O43491), the log2 fold change is reported as inactive: 0.019. EMC4 (UniProt Q5J8M3) was tested, and the log2 fold change was inactive: -0.062. For EPN1 (UniProt Q9Y6I3), the log2 fold change was inactive: 0.019. With EPB41, A0A2R8Y783 the log2 fold change was inactive: -0.031.

The targets below were run with CC1=C2C(=CC=C1)N=C(N(C2=O)C3=CC=CC=C3C)CN4C=NC5=C(N=CN=C54)N in the same assay as above.
Procedure, shortened: as §1
In the case of EMC2 (UniProt Q15006), the log2 fold change is reported as inactive: 0.037. ERH (UniProt P84090) was tested, and the log2 fold change was inactive: -0.094. With EIF2B4 (UniProt Q9UI10) the log2 fold change was inactive: -0.005. For ERAP1 isoform 2 (UniProt Q9NZ08), the log2 fold change was inactive: 0. With ELF1 (UniProt P32519) the log2 fold change was inactive: -0.053. In the case of EMC6 (UniProt Q9BV81), the log2 fold change is reported as inactive: 0.017. EIF4H isoform 2 (UniProt Q15056) was tested, and the log2 fold change was inactive: -0.088. In the case of ERGIC2 (UniProt Q96RQ1), the log2 fold change is reported as inactive: -0.044. With ELOB (UniProt Q15370) the log2 fold change was inactive: 0.008. With ERI1 (UniProt Q8IV48) the log2 fold change was inactive: -0.022. In the case of EPB41L3 (UniProt Q9Y2J2), the log2 fold change is reported as inactive: -0.019. For EIF3E (UniProt P60228), the log2 fold change was inactive: 0.025. In the case of EIF2B4 isoform 2 (UniProt Q9UI10), the log2 fold change is reported as inactive: 0.037. With ENSA isoform 3 (UniProt O43768) the log2 fold change was inactive: -0.024. In the case of ELP1 (UniProt O95163), the log2 fold change is reported as inactive: 0.021. With EIF2AK2 (UniProt P19525) the log2 fold change was inactive: -0.027. For EPS8L1 (UniProt Q8TE68), the log2 fold change was inactive: 0.098. ERC1 (UniProt X6RLX0) was tested, and the log2 fold change was inactive: 0.022. ENO1, A0A2R8YEM5 was tested, and the log2 fold change was inactive: -0.048. In the case of EPC2 (UniProt Q52LR7), the log2 fold change is reported as inactive: 0.026. EMC3 (UniProt Q9P0I2) was tested, and the log2 fold change was inactive: 0.001. With EIF3G (UniProt O75821) the log2 fold change was inactive: 0.015. For EIF3J (UniProt O75822), the log2 fold change was inactive: -0.011. EPN2 (UniProt O95208) was tested, and the log2 fold change was inactive: -0.02. For EIF3H (UniProt O15372), the log2 fold change was inactive: -0.014. For ELL (UniProt P55199), the log2 fold change was inactive: 0.127. EIF4EBP2 (UniProt Q13542) was tested, and the log2 fold change was inactive: 0.044. In the case of EML4 (UniProt Q9HC35), the log2 fold change is reported as inactive: 0.025. In the case of EIF2S3 (UniProt P41091), the log2 fold change is reported as inactive: -0.009. In the case of EPB41L2 (UniProt O43491), the log2 fold change is reported as inactive: 0.008. EMC4 (UniProt Q5J8M3) was tested, and the log2 fold change was inactive: -0.023. For EPN1 (UniProt Q9Y6I3), the log2 fold change was inactive: -0.017. For EPB41, A0A2R8Y783, the log2 fold change was inactive: 0.142.
